PubChem BioAssay AID1159598 | NIAID – 2016
Aim: 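Canonical TLR pathway genes needed for TNF promoter response to flagellin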. Cell system: human THP-1 B5 reporter cells made macrophage-like with PMA. Reagents: single siRNA against human genes. Timing: reporter read 48 to 72 hours after siRNA transfection. Treatment: flagellin stimulation for 4 hours, dose not given. Measured: 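Firefly to renilla ratio from a TNF promoter reporter after 4 h flagellin, as robust z against negative controls averaged across replicates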. Direction: TNF reporter z-score: higher = stronger TNF promoter activity than controls. Rule for the call: 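Active means the mean reporter z is about 1.5 or more, or about -1.5 or less; values closer to zero are inactive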. Meaning of the calls: active = reporter shifted beyond 1.5 z, up or down; inactive = reporter within 1.5 z of controls.
This is one part, drawn at random, of 756 reagents. 142 of them (19%) were called active. 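Active includes both higher and lower reporter signal; each gene has six separate siRNAs, and no gene-level summary is deposited.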 Entries without a mark were called inactive. Not given: the amount of reagent.

| Target gene | PubChem SID | TNF reporter z-score |
| --- | --- | --- |
| FADD (GeneID 8772) | SID303070804 | 1.14 |
| FADD (GeneID 8772) | SID303070805 | -0.209 |
| FADD (GeneID 8772) | SID303070806 | -0.113 |
| FADD (GeneID 8772) | SID303070807 | -0.747 |
| FADD (GeneID 8772) | SID303070808 | -0.0569 |
| FADD (GeneID 8772) | SID303070809 | -1.83 (active) |
| SIGIRR (GeneID 59307) | SID303071128 | 0.182 |
| SIGIRR (GeneID 59307) | SID303071129 | 0.0576 |
| SIGIRR (GeneID 59307) | SID303071130 | -0.158 |
| SIGIRR (GeneID 59307) | SID303071131 | 0.196 |
| SIGIRR (GeneID 59307) | SID303071132 | 1.35 |
| SIGIRR (GeneID 59307) | SID303071133 | -0.594 |
| IRF3 (GeneID 3661) | SID303070828 | 0.618 |
| IRF3 (GeneID 3661) | SID303070829 | -0.402 |
| IRF3 (GeneID 3661) | SID303070830 | -1.83 (active) |
| IRF3 (GeneID 3661) | SID303070831 | -0.404 |
| IRF3 (GeneID 3661) | SID303070832 | -0.669 |
| IRF3 (GeneID 3661) | SID303070833 | -1.01 |
| MAPK9 (GeneID 5601) | SID303070762 | -0.195 |
| MAPK9 (GeneID 5601) | SID303070763 | -1.21 |
| MAPK9 (GeneID 5601) | SID303070764 | -0.259 |
| MAPK9 (GeneID 5601) | SID303070765 | 1.15 |
| MAPK9 (GeneID 5601) | SID303070766 | -0.165 |
| MAPK9 (GeneID 5601) | SID303070767 | 0.0511 |
| TNFAIP3 (GeneID 7128) | SID303071158 | -2.37 (active) |
| TNFAIP3 (GeneID 7128) | SID303071159 | -1.22 |
| TNFAIP3 (GeneID 7128) | SID303071160 | -2.94 (active) |
| TNFAIP3 (GeneID 7128) | SID303071161 | -1.4 |
| TNFAIP3 (GeneID 7128) | SID303071162 | 0.478 |
| TNFAIP3 (GeneID 7128) | SID303071163 | -2.17 (active) |
| IRF5 (GeneID 3663) | SID303070942 | -3.81 (active) |
| IRF5 (GeneID 3663) | SID303070943 | -0.862 |
| IRF5 (GeneID 3663) | SID303070944 | 0.29 |
| IRF5 (GeneID 3663) | SID303070945 | 0.0714 |
| IRF5 (GeneID 3663) | SID303070946 | -0.776 |
| IRF5 (GeneID 3663) | SID303070947 | 0.809 |
| UBE2N (GeneID 7334) | SID303070570 | 0.142 |
| UBE2N (GeneID 7334) | SID303070571 | -0.786 |
| UBE2N (GeneID 7334) | SID303070572 | 1.51 (active) |
| UBE2N (GeneID 7334) | SID303070573 | -1.9 (active) |
| UBE2N (GeneID 7334) | SID303070574 | -0.357 |
| UBE2N (GeneID 7334) | SID303070575 | 0.515 |
| TOLLIP (GeneID 54472) | SID303071176 | -1.34 |
| TOLLIP (GeneID 54472) | SID303071177 | -0.789 |
| TOLLIP (GeneID 54472) | SID303071178 | 0.814 |
| TOLLIP (GeneID 54472) | SID303071179 | -2.4 (active) |
| TOLLIP (GeneID 54472) | SID303071180 | 0.0982 |
| TOLLIP (GeneID 54472) | SID303071181 | 0.522 |
| IL6 (GeneID 3569) | SID303071086 | 0.651 |
| IL6 (GeneID 3569) | SID303071087 | -1.1 |
| IL6 (GeneID 3569) | SID303071088 | -1.82 (active) |
| IL6 (GeneID 3569) | SID303071089 | 0.0203 |
| IL6 (GeneID 3569) | SID303071090 | -0.329 |
| IL6 (GeneID 3569) | SID303071091 | -0.718 |
| EGR1 (GeneID 1958) | SID303071002 | -1.97 (active) |
| EGR1 (GeneID 1958) | SID303071003 | -2.32 (active) |
| EGR1 (GeneID 1958) | SID303071004 | -3 (active) |
| EGR1 (GeneID 1958) | SID303071005 | -0.997 |
| EGR1 (GeneID 1958) | SID303071006 | -0.374 |
| EGR1 (GeneID 1958) | SID303071007 | -0.734 |
| NFKBIB (GeneID 4793) | SID303070636 | -0.969 |
| NFKBIB (GeneID 4793) | SID303070637 | 0.357 |
| NFKBIB (GeneID 4793) | SID303070638 | -0.812 |
| NFKBIB (GeneID 4793) | SID303070639 | -1.11 |
| NFKBIB (GeneID 4793) | SID303070640 | -0.152 |
| NFKBIB (GeneID 4793) | SID303070641 | -0.477 |
| TLR3 (GeneID 7098) | SID303070450 | 0.439 |
| TLR3 (GeneID 7098) | SID303070451 | -0.746 |
| TLR3 (GeneID 7098) | SID303070452 | -0.438 |
| TLR3 (GeneID 7098) | SID303070453 | -0.327 |
| TLR3 (GeneID 7098) | SID303070454 | -0.357 |
| TLR3 (GeneID 7098) | SID303070455 | -1.26 |
| TLR6 (GeneID 10333) | SID303070468 | 0.245 |
| TLR6 (GeneID 10333) | SID303070469 | -1.88 (active) |
| TLR6 (GeneID 10333) | SID303070470 | -0.573 |
| TLR6 (GeneID 10333) | SID303070471 | -1.39 |
| TLR6 (GeneID 10333) | SID303070472 | 0.209 |
| TLR6 (GeneID 10333) | SID303070473 | -0.942 |

Reformatted: entries from further up.
Target gene	PubChem SID	TNF reporter z-score
IRF3 (GeneID 3661)	SID303070832	-0.669
IRF3 (GeneID 3661)	SID303070833	-1.01
MAPK9 (GeneID 5601)	SID303070762	-0.195
MAPK9 (GeneID 5601)	SID303070763	-1.21
MAPK9 (GeneID 5601)	SID303070764	-0.259
MAPK9 (GeneID 5601)	SID303070765	1.15
MAPK9 (GeneID 5601)	SID303070766	-0.165
